Data as given in PubChem BioAssay AID1508597 (Cure First, 2020)
Assay: 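Knock-downs altering ovarian cancer cell survival with or without PARP inhibitor rucaparib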 (primary screen). System: human ovarian carcinoma lines grown from tumours: OCI-P5x (papillary serous) and OCI-C5x (clear cell). Reagent: siRNA pool against human genes, 1.25 pmol siRNA per well. Time to read-out: 72 h or 96 h, depending on the cell culture. Treatment: rucaparib 20 µM (about IC30) or vehicle, present until read-out. Rucaparib or vehicle: Rucaparib. Cell line: OCI-P5x (serous). Detection: 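ATP luminescence measured at 72 or 96 h according to the culture, then normalised and expressed as percent viability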. Reading the numbers: viability, normalised: higher = more viable cells remaining. Rule for the call: 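a well counts as a hit if its normalised viability is under 80 percent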. Meaning of the calls: active = viability under 80%; inactive = viability 80% or more.
This is an unselected part of the about 2,100 reagents, under one of the conditions tested. 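Calls flag viability under 80% in either arm, not effects specific to rucaparib; the reference for percent is not stated.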 A reagent listed more than once was tested more than once; the source does not tell the runs apart. Not given: the 100% reference.

no.	target gene	technical replicate	viability, normalised (%)	Call
1	UTP3 (UTP3 small subunit processome component)	1	100	inactive
2	UTP3 (UTP3 small subunit processome component)	2	81.4	inactive
3	UTP3 (UTP3 small subunit processome component)	3	86.5	inactive
4	SETDB2 (SET domain bifurcated histone lysine methyltransferase 2)	1	41.8	active
5	SETDB2 (SET domain bifurcated histone lysine methyltransferase 2)	2	40.3	active
6	SETDB2 (SET domain bifurcated histone lysine methyltransferase 2)	3	44.6	active
7	CMPK1 (cytidine/uridine monophosphate kinase 1)	1	98.1	inactive
8	CMPK1 (cytidine/uridine monophosphate kinase 1)	2	83	inactive
9	CMPK1 (cytidine/uridine monophosphate kinase 1)	3	102	inactive
10	PRKX (protein kinase cAMP-dependent X-linked catalytic subunit)	1	119	inactive
11	PRKX (protein kinase cAMP-dependent X-linked catalytic subunit)	2	117	inactive
12	PRKX (protein kinase cAMP-dependent X-linked catalytic subunit)	3	98	inactive
13	POLE (DNA polymerase epsilon, catalytic subunit)	1	86.8	inactive
14	POLE (DNA polymerase epsilon, catalytic subunit)	2	103	inactive
15	POLE (DNA polymerase epsilon, catalytic subunit)	3	81.1	inactive
16	CKM (creatine kinase, M-type)	1	114	inactive
17	CKM (creatine kinase, M-type)	2	111	inactive
18	CKM (creatine kinase, M-type)	3	99.7	inactive
19	DDX31 (DEAD-box helicase 31)	1	61.2	active
20	DDX31 (DEAD-box helicase 31)	2	62.9	active
21	DDX31 (DEAD-box helicase 31)	3	51.1	active
22	ZFP82 (ZFP82 zinc finger protein)	1	85.3	inactive
23	ZFP82 (ZFP82 zinc finger protein)	2	75	active
24	ZFP82 (ZFP82 zinc finger protein)	3	84.7	inactive
25	DDX46 (DEAD-box helicase 46)	1	66.6	active
26	DDX46 (DEAD-box helicase 46)	2	59.9	active
27	DDX46 (DEAD-box helicase 46)	3	58.2	active
28	TKFC (triokinase and FMN cyclase)	1	80.2	inactive
29	TKFC (triokinase and FMN cyclase)	2	63.3	active
30	TKFC (triokinase and FMN cyclase)	3	70	active
31	IRS2 (insulin receptor substrate 2)	1	40.3	active
32	IRS2 (insulin receptor substrate 2)	2	44.4	active
33	IRS2 (insulin receptor substrate 2)	3	41.6	active
34	ZMYND8 (zinc finger MYND-type containing 8)	1	63.6	active
35	ZMYND8 (zinc finger MYND-type containing 8)	2	48.4	active
36	ZMYND8 (zinc finger MYND-type containing 8)	3	47.2	active
37	LCK (LCK proto-oncogene, Src family tyrosine kinase)	1	94.2	inactive
38	LCK (LCK proto-oncogene, Src family tyrosine kinase)	2	99.8	inactive
39	LCK (LCK proto-oncogene, Src family tyrosine kinase)	3	85.7	inactive
40	FANCA (FA complementation group A)	1	96.8	inactive
41	FANCA (FA complementation group A)	2	107	inactive
42	FANCA (FA complementation group A)	3	88.1	inactive
43	MSL3 (MSL complex subunit 3)	1	56.3	active
44	MSL3 (MSL complex subunit 3)	2	65.4	active
45	MSL3 (MSL complex subunit 3)	3	66	active
46	HDAC2 (histone deacetylase 2)	1	50.8	active
47	HDAC2 (histone deacetylase 2)	1	88.7	inactive
48	HDAC2 (histone deacetylase 2)	2	82.9	inactive
49	HDAC2 (histone deacetylase 2)	2	43.7	active
50	HDAC2 (histone deacetylase 2)	3	54.3	active
51	HDAC2 (histone deacetylase 2)	3	75.2	active
52	STK32C (serine/threonine kinase 32C)	1	52.5	active
53	STK32C (serine/threonine kinase 32C)	2	91.9	inactive
54	STK32C (serine/threonine kinase 32C)	3	74	active
55	STKLD1 (serine/threonine kinase like domain containing 1)	1	113	inactive
56	STKLD1 (serine/threonine kinase like domain containing 1)	2	98.7	inactive
57	STKLD1 (serine/threonine kinase like domain containing 1)	3	83.1	inactive

3 entries from above, ordered by “viability, normalised (%)”, ascending:
target gene	technical replicate	viability, normalised (%)	Call
DDX46 (DEAD-box helicase 46)	3	58.2	active
DDX46 (DEAD-box helicase 46)	2	59.9	active
DDX46 (DEAD-box helicase 46)	1	66.6	active
